Laboratory results published in publication PMC6208382.
Results are given in words; binding and its absence hold for the method and conditions named. In cells and extracts the contact can be indirect. Some binding calls cover weakened binding; strength is not graded here.

The chains behind the UniProt entries cited, without tags or fusion partners.
UniProt P01106: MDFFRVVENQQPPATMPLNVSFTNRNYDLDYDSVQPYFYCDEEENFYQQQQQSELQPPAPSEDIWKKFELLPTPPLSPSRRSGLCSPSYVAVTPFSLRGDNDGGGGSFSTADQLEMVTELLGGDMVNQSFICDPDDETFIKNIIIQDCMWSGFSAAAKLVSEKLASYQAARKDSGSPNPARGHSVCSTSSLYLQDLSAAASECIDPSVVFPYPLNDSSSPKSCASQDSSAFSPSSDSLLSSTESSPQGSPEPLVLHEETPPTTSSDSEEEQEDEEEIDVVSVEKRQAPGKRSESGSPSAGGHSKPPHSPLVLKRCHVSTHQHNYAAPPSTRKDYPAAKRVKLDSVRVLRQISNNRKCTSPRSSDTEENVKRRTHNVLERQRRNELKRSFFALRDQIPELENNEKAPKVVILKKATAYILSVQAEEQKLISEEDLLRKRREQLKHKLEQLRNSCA

Target: MYC (human (endogenous in HepG2)) (UniProt P01106)
Test: co-IP; co-immunoprecipitation with antibodies against MYC and TXNDC9, cytoplasmic lysate of HepG2 cells

binding: binds
B1: thioredoxin domain containing protein 9 (TXNDC9) (protein, UniProt O14530 1-226)
chain: MEADASVDMFSKVLEHQLLQTTKLVEEHLDSEIQKLDQMDEDELERLKEKRLQALRKAQQQKQEWLSKGHGEYREIPSERDFFQEVKESENVVCHFYRDSTFRCKILDRHLAILSKKHLETKFLKLNVEKAPFLCERLHIKVIPTLALLKDGKTQDYVVGFTDLGNTDDFTTETLEWRLGSSDILNYSGNLMEPPFQNQKKFGTNFTKLEKKTIRGKKYDSDSDDD
